Laboratory results taken from publication PMC5342420, “CD109 is identified as a potential nasopharyngeal carcinoma biomarker using aptamer selected by cell-SELEX”.
Construct, isoform or probe ends are uncertain for at least one entry. At least one result comes from cells or an extract, where the contact may be indirect. For some assays here: Tags and fusion partners may be left off the protein sequences shown.

Legend:
[1] = target: CD109 expressed on 293T cells (UniProt Q6YHK3); test: flow cytometry; settings: CD109-transfected 293T, no binding to native or empty-vector 293T; Cells: D-PBS (Ca/Mg-free) + 4.5 g/L glucose, 5 mM MgCl2, 0.1 mg/mL yeast tRNA, 1 mg/mL BSA, 10% FBS, on ice 0.5 h; protein on the cell surface; label: FITC; single-stranded DNA
[2] = target: T1, CD109 (5-8F cell lysate) (UniProt Q6YHK3); test: pull-down with mass spectrometry; settings: 5-8F lysate, streptavidin beads, 4 C, no S3-specific band with library or beads only; Cells: D-PBS (Ca/Mg-free) + 4.5 g/L glucose, 5 mM MgCl2, 0.1 mg/mL yeast tRNA, 1 mg/mL BSA, 10% FBS, on ice 0.5 h; protein in an extract; label: biotin; single-stranded DNA
T1 sequence (looked up, limits assumed): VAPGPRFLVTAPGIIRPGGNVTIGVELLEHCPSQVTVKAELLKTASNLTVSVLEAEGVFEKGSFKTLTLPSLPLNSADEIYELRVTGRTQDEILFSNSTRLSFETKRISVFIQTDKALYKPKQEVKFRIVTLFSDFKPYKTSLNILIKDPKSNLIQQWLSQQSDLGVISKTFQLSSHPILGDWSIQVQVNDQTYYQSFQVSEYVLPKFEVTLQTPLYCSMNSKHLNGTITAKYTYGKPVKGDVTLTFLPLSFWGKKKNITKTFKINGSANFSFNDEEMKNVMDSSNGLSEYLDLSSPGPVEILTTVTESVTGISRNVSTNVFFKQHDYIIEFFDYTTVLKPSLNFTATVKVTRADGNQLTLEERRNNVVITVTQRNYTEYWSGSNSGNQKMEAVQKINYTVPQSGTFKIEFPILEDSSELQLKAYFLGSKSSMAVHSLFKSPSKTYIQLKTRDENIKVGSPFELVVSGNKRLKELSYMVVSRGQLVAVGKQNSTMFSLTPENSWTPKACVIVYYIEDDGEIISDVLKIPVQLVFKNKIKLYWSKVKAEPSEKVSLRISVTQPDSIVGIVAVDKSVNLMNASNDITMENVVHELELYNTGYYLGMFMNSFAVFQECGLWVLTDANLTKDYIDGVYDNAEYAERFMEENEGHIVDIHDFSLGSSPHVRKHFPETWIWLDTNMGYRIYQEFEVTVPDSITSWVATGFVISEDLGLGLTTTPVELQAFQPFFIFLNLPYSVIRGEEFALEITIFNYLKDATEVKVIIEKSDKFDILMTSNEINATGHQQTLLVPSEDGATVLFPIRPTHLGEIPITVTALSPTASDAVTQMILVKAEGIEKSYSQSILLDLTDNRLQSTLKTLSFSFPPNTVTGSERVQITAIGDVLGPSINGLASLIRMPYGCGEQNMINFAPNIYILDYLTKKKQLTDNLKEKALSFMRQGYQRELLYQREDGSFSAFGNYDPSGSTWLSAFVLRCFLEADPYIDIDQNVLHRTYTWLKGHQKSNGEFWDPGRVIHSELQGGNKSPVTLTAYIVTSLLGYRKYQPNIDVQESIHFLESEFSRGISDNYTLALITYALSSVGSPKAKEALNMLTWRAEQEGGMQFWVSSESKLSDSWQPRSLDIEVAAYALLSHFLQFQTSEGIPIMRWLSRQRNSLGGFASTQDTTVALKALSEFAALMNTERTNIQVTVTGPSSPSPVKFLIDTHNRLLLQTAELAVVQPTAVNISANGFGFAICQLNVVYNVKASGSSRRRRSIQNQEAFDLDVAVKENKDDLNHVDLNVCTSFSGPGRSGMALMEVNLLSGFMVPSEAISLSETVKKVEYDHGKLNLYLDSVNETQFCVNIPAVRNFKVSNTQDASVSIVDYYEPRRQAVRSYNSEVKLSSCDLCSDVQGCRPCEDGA

Row | Sequence | binding result [1] | binding result [2]
1 | ATCCAGAGTGACGCAGCATCTGAGAATAGTGGTTTGCTGTATGGTGGGCGTTGAAAGAGGGGTGGACACGGTGGCTTAGT [S3 (FITC-labeled)] | binds | –
2 | ATCCAGAGTGACGCAGCATCTGAGAATAGTGGTTTGCTGTATGGTGGGCGTTGAAAGAGGGGTGGACACGGTGGCTTAGT [S3 (biotin-labeled)] | – | binds
